# In PubChem BioAssay AID540276 (National Center for Advancing Translational Sciences (NCATS), 2011):
# “And” between values parts separate entries of the source, which are not always exact repeats. Identical values can stand only once. Hit rate of the full screen: of about 300,000 compounds, about 5,400 (1.8%) were called active. Inconclusive results, whose numbers are uncertain, are shown with a selection of clear calls. Calls follow the shape of the full dose curve; tested in HEK293 cells. Potencies of inconclusive entries are doubtful fits and often do not repeat.
# Experiment: qHTS for inhibitors of binding or entry into cells for Marburg Virus
# Settings: Marburg virus pseudotyped entry inhibition, cell reporter; activity change, negative = inhibition: at 37.8 µM (top of the series) unless noted
# % is scaled to controls: 0 for no effect and ±100 for the full control effect; potency is read from the fitted curve at half-maximal effect.
Compound,"activity change, negative = inhibition",Potency
COC(=O)C1=C(C(=O)OC)[C@@H]2N(Cc3ccccc3)c3ccccc3[C@@]23C[C@@H](CO)N(C(=O)CC(C)C)C3=N1,inactive: -37.7% [at 14.2 µM],
CC1CCN(C(=O)Cn2cnc3c(cnn3C(C)(C)C)c2=O)CC1,,"inconclusive: 3.16 µM [activator, partial curve, poor fit]"
CCOC(Cn1cc(C)c(=O)[nH]c1=O)OCC,,"inconclusive: 1 µM [inhibitor, partial curve, poor fit]"
C=CCNC(=O)c1ccc(N(C)S(=O)(=O)c2ccc(OC)cc2)cc1,inactive: 25.5%,
CCSc1nnc(NC(NC(C)=O)(C(F)(F)F)C(F)(F)F)s1,,"inconclusive: 3.16 µM [activator, partial curve, poor fit]"
Cc1ccc(S(=O)(=O)N2CCN(c3ncnc4c3cnn4-c3ccccc3)CC2)cc1,inactive: 4.86%,
CCCOC(=O)c1cccc(Nc2nc(-c3cccnc3)nc3ccccc23)c1,,active: 10 µM
O=S(=O)(Nc1ccncc1)c1ccc(Cl)c(Cl)c1,inactive: 2.06%,
O=C(CCCc1ccccn1)c1cccc2ccccc12,,"inconclusive: 17.8 µM [inhibitor, single point]"
C/C(=N\Nc1nc2ccccc2[nH]1)c1ccc(C)o1,,"inconclusive: 10 µM [inhibitor, partial curve, poor fit]"
COc1ccccc1NC(=O)CN1C(=O)C(C)SC(C)C1=O (stereo unspecified),,"inconclusive: 31.6 µM [activator, single point]"
CCOc1ccc(NC(=O)CCN2CCN(S(=O)(=O)c3ccc(Cl)cc3)CC2)cc1,inactive: 4.23%,
O=C(CN1CCN(c2ncc(C(F)(F)F)cc2Cl)CC1)NCCNc1ncc(C(F)(F)F)cc1Cl,,"inconclusive: 7.94 µM [inhibitor, partial curve]"
Cc1cc(C(=O)CN2C(=O)NC(C)(c3ccccc3)C2=O)c(C)n1CC1CCCO1 (stereo unspecified),,"inconclusive: 8.91 µM [activator, partial curve, poor fit]"
CC(C)(C)C(=O)C(Cc1ccccc1)n1cncn1 (stereo unspecified),,"inconclusive: 4.47 µM [inhibitor, full curve, poor fit]"
Cc1cc(NC(=O)c2cc(C)on2)no1,inactive: 0.192%,
CC(C)c1cccc(C(C)C)c1NC(=O)c1ccccc1,inactive: -6.12% [at 46.1 µM],
CCN(C(=O)CSc1nnc(Nc2ccccc2C)s1)C1CCS(=O)(=O)C1 (stereo unspecified),,"inconclusive: 3.55 µM [activator, partial curve, poor fit]"
O=C(NCc1ccccn1)Nc1cccc(NC(=O)NCc2ccccn2)c1,,"inconclusive: 16.4 µM [activator, partial curve, poor fit]"
NS(=O)(=O)c1ccc(CNc2ccc3ccccc3n2)cc1,inactive: 2.67% [at 46.1 µM],
O=C(C1CCCN(S(=O)(=O)c2cccs2)C1)N1CCc2ccccc2C1 (stereo unspecified),,"inconclusive: 1.26 µM [activator, single point]"
COc1ccccc1NC1=NCCS1,inactive: 1.53%,
CCOC(=O)/C=c1\s/c(=C\c2ccc(C(=O)OC)cc2)c(=O)n1CC(=O)Nc1ccccc1,,"inconclusive: 35.5 µM [inhibitor, single point]"

Compound,"activity change, negative = inhibition",Potency
CC/S(C)=N/S(=O)(=O)c1ccc(C)cc1 (stereo unspecified),,"inconclusive: 1.58 µM [inhibitor, partial curve, poor fit]"
Cc1ccc(Cl)cc1N1CCN(CCNC(=O)Nc2ccc(Cl)cc2)CC1,,"inconclusive: 15.8 µM [inhibitor, single point]"
COc1ccc(CNC(=O)c2ccc(SC)cc2OC)cc1,inactive: -0.991%,
CCOc1ccc(/C(O)=C2/C(=O)C(=O)N(c3nc(C)c(C)s3)C2c2ccco2)cc1 (stereo unspecified),inactive: -9.74%,
Cc1nc(COc2cc3oc(=O)cc(C)c3cc2Cl)cs1,,"inconclusive: 2 µM [inhibitor, partial curve, poor fit]"
CCOc1ccc(OCc2cccc(C(=O)O)c2)cc1,,"inconclusive: 0.92 µM [inhibitor, full curve, poor fit]"
CCCN1CCN(c2ncnc3scc(C4COc5ccccc5O4)c23)CC1 (stereo unspecified),,"inconclusive: 11.2 µM [inhibitor, partial curve, poor fit]"
CCC(C)(C)NC(=O)Nc1cc(Cl)ccc1OC,inactive: -11.7%,
COc1ccc(C(=O)N(CC2CCCO2)C(C(=O)NCCC(C)C)c2ccc(C)cc2)cc1OC (stereo unspecified),inactive: -0.0207%,
CC(=O)NN1C(=O)/C(=C2/Sc3ccc(Cl)cc3N2C)SC1=S,inactive: 23.4%,
Cc1cc(C)c2c(CN3CCN(C/C=C/c4ccccc4)CC3)cc(=O)oc2c1,,"inconclusive: 23.1 µM [inhibitor, single point]"
Cc1cc(C)n2nc(C(=O)OCC(=O)c3ccccc3)nc2n1,,"inconclusive: 5.62 µM [inhibitor, partial curve, poor fit]"
O=C(CCNS(=O)(=O)c1cccc2nsnc12)NCCc1ccccc1,,"inconclusive: 18.3 µM [activator, single point]"
Cc1cc2oc(C(=O)N(Cc3ccccc3)C3CCS(=O)(=O)C3)cc(=O)c2cc1Cl (stereo unspecified),,"inconclusive: 10.3 µM [inhibitor, partial curve, poor fit]"
Cc1cccc(N(CC(=O)NCCSc2ccc(Cl)cc2)S(=O)(=O)c2ccccc2)c1C,,"inconclusive: 35.5 µM [inhibitor, single point]"
O=C(C/C=N/OCc1ccccc1F)c1cnc(-c2ccc(Cl)cc2)s1,inactive: 10.1%,
CCCn1c(C)cc(-c2csc(NC(=O)CCc3nc4ccccc4c(=O)[nH]3)n2)c1C,,"inconclusive: 35.5 µM [activator, single point]"
CCOc1ccc(-c2nc3scc(-c4cccs4)c3c(=O)[nH]2)cc1,inactive: 19.3% [at 46.1 µM],
Cc1cccc(N/C=C/C(=O)c2cccs2)c1C,,"inconclusive: 14.1 µM [inhibitor, partial curve, poor fit]"
Cc1cc(=O)[nH]c(SCC(=O)Nc2ccc(C(=O)O)cc2)n1,,"inconclusive: 14.6 µM [activator, partial curve, poor fit]"
Cc1ccc(/C(O)=C2/C(=O)C(=O)N(CCN3CCOCC3)C2c2cccs2)cc1 (stereo unspecified),inconclusive: 28.1% [activator],
CCc1ccc(NC(=O)CSc2nc3ccccc3c(=O)n2CCCN2CCC(C)CC2)cc1,,"inconclusive: 7.08 µM [inhibitor, partial curve, poor fit]"
COc1ccc(/C=C2\SC(=O)N(CCNC(=O)C3CC4C=CC3C4)C2=O)cc1 (stereo unspecified),,"inconclusive: 3.16 µM [activator, single point]"
Oc1ccccc1/C=C/c1noc(-c2ccccc2O)n1,inactive: -24% [at 46.1 µM],

Compound,"activity change, negative = inhibition",Potency
O=C(/N=C1\NC(=O)C(F)(C(F)(F)F)S1)NC1CCCCC1 (stereo unspecified),inconclusive: 15.7% [activator],
COC(=O)c1c(NC(=O)CSc2n[nH]c(N)n2)sc(C)c1C,,"inconclusive: 0.146 µM [inhibitor, full curve, poor fit]"
OCCC1CN(Cc2cccc3c2OCO3)CCN1Cc1ccccc1 (stereo unspecified),,"inconclusive: 3.98 µM [activator, partial curve, poor fit]"
CN1CCN(S(=O)(=O)c2ccc3c(c2)OCCO3)CC1,inactive: 13.4%,
CCOc1ccc(C(C(=O)NC2CCCCC2)N(C(=O)Cc2cccs2)c2ccc(-n3cnnn3)c(OC)c2)cc1 (stereo unspecified),,"inconclusive: 1.58 µM [inhibitor, full curve, poor fit]"
CCc1cc2c(nc1CC)CCN(CC/C(C)=N/OCC[C@@H]1C=C[C@H](OC(C)=O)[C@H](COC(C)=O)O1)C2,,"inconclusive: 0.299 µM [inhibitor, partial curve, poor fit]"
O=C1Nc2ccccc2C1(O)Cc1ccncc1 (stereo unspecified),,"inconclusive: 35.5 µM [inhibitor, single point]"
COc1ccc(OC)c(NC(=O)COC(=O)c2c3c(nc4ccccc24)CCCC3)c1,,active: 5.17 µM
COc1ccc(OC)c(NC(=O)COc2coc(CN3CCc4ccccc43)cc2=O)c1,inactive: -5.44%,
COc1ccc(NC(=O)c2cccc(S(=O)(=O)N(C)c3ccccc3)c2)cn1,inactive: -29.7%,
Fc1ccc(-c2nnn(Cc3ccc(F)cc3Cl)n2)cc1,inactive: -1.1%,
CCCCOC(=O)c1ccc(NC(=O)Cc2coc3ccc(C(C)C)cc23)cc1,inconclusive: 22.1% [activator] [at 46.1 µM],
O=P(O)(O)Cc1c(Cl)cccc1Cl,inactive: 8.39%,
CC(=O)N=C(N)Sc1nc2ccccc2[nH]1,inactive: -22.8% [at 46.1 µM],
N#Cc1cc(-c2ccccc2)nn1-c1ccccc1,,"inconclusive: 29.1 µM [inhibitor, single point]"
Nc1nc(NC(=O)CCC(=O)O)nn1-c1ccccc1,inactive: 11.6%,
COC(=O)C(Cc1ccccc1)NC(=S)NC(=O)c1ccccc1 (stereo unspecified),,"inconclusive: 0.708 µM [inhibitor, partial curve, poor fit]"
CCOC(=O)CNC(=O)Cn1cnc2c(nnn2-c2ccc(C)cc2)c1=O,,"inconclusive: 23.1 µM [activator, single point]"
O=C(O)CNC(=O)CC12CC3CC(CC(C3)C1)C2,,"inconclusive: 5.62 µM [activator, single point]"
COc1ccc(Cn2c(O)c(C=Nc3ccc(O)cc3)c3ccccc3c2=O)cc1,,"inconclusive: 35.5 µM [inhibitor, partial curve, poor fit]"
Cc1c(Cl)cccc1NC(=O)Cn1nc(C)c2sc3ccccc3c2c1=O,inconclusive: 13.1% [activator] [at 46.1 µM],
O=C(Cc1nc2ccccc2[nH]1)c1ccc(Cl)cc1,inactive: 2.85% [at 46.1 µM],
CCN1C(=O)C(CC(=O)Nc2ccc(F)cc2)N(CCCN2CCN(c3ccc(F)cc3)CC2)C1=S (stereo unspecified),,"inconclusive: 35.5 µM [inhibitor, single point]"
